Among the data in publication PMC10759669 are binding values, retold here.

One experiment addresses T1, Flag-tagged MST1 (UniProt Q13043).
T1 sequence: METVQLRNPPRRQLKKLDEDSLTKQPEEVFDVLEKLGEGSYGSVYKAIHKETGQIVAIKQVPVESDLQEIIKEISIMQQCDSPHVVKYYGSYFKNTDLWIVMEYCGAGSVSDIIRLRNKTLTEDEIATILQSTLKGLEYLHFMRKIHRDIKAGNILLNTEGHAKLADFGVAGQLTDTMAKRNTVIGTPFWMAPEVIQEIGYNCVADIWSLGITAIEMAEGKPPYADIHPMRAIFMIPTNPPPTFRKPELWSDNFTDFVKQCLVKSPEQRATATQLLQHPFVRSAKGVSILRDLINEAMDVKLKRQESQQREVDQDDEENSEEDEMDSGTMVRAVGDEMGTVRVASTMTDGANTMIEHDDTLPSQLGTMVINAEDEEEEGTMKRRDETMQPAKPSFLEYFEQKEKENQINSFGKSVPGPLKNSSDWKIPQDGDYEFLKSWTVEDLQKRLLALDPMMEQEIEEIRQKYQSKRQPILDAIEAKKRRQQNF
Kind of experiment: co-IP; HEK293T cells expressing HA-tagged GPR137 and Flag-tagged MST1; IP: Flag; WB: HA.

In experiment [1] the target is T2, endogenous MST1 (human (endogenous in AGS)) (UniProt Q13043).
T2 sequence: T1 sequence
Kind of experiment: co-IP; AGS cell lysate (100 mM NaCl, 50 mM Tris-HCl pH 8.0, 5 mM EDTA, 1% Brij35); IP: MST1 antibody with protein A/G plus agarose, IgG as negative control; WB: GPR137 or LATS1; for MST1-LATS1 cells with or without transfected GPR137 or XMU-MP-1.

Results are given in words; binding and its absence hold for the method and conditions named. Binding seen in cells or lysates may run through a third protein. Some entries that bind do so weakly or less than the wild type. For part of these data: Tags and fused reporters may be left off the sequences shown.

B1: HA-tagged GPR137 (G protein-coupled receptor 137) (receptor, UniProt Q96N19 1-417)
chain: MESNLSGLVPAAGLVPALPPAVTLGLTAAYTTLYALLFFSVYAQLWLVLLYGHKRLSYQTVFLALCLLWAALRTTLFSFYFRDTPRANRLGPLPFWLLYCCPVCLQFFTLTLMNLYFAQVVFKAKVKRRPEMSRGLLAVRGAFVGASLLFLLVNVLCAVLSHRRRAQPWALLLVRVLVSDSLFVICALSLAACLCLVARRAPSTSIYLEAKGTSVCQAAAMGGAMVLLYASRACYNLTALALAPQSRLDTFDYDWYNVSDQADLVNDLGNKGYLVFGLILFVWELLPTTLLVGFFRVHRPPQDLSTSHILNGQVFASRSYFFDRAGHCEDEGCSWEHSRGESTRCQDQAATTTVSTPPHRRDPPPSPTEYPGPSPPHPRPLCQVCLPLLAQDPGGRGYPLLWPAPCCSCHSELVPSP
As to B1, the binding result with Flag-tagged MST1 was “binds”.

B2: endogenous GPR137 (receptor, UniProt Q96N19 1-417)
chain: B1 chain
Turning to B2, the binding entry in experiment [1] was “binds”.

B3: GPR137 overexpressed in AGS cells (receptor, UniProt Q96N19 1-417)
chain: B1 chain
As for B3, in experiment [1], the binding entry is “binds”.
